Test results taken from the supplement of paper PMC5407854, “Inhibitor of ppGalNAc-T3-mediated O-glycosylation blocks cancer cell invasiveness and lowers FGF23 levels” (eLife, 2017).
± gives the standard deviation of the averaged measurements. In all, about 1,700 compounds were measured (“T3 sensor activation Q score (MG/GFP ratio z-score vs DMSO controls)”: median about 0.25, highest 2% from about 1.9 on). The list shows a part of the results.

System: ppGalNAc-T3 sensor
Assay: T3 sensor activation Q score (MG/GFP ratio z-score vs DMSO controls) (SD units); higher = more sensor activation (inhibition of ppGalNAc-T3 glycosylation)
Details: HEK293 sensor cells; 10 µM; 6 h
Description: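 Cells were treated with compound at 10 uM for 6 h, then MG/GFP ratio was read by flow cytometry (10,000 cells per well, duplicate wells). Q = (R - R_neg)/SD_neg relative to DMSO vehicle controls; the signal rises when the glycosyltransferase is inhibited.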

Row | SMILES | T3 sensor activation Q score
1 | Cc1ccc(NCCN(C)C)c2c(=O)c3cc(O)ccc3sc12 | -1.3
2 | NC(=O)Oc1cccc(OC(N)=O)c1 | 0.65
3 | CCCOc1ccc(-c2nc(-c3ccc([N+](=O)[O-])cc3)cs2)cc1 | -0.95
4 | Cc1[nH]c(=S)[nH]c(=O)c1CCC1OCCO1 | -0.45
5 | CCN(CC)CCN1C(=O)c2cccc3cc(N)cc(c23)C1=O | 0.95
6 | Cc1ccc(N=Nc2c(O)c3ccccc3[nH]c2=O)c(S(=O)(=O)N(C)C)c1 | 0.95
7 | Nc1c(Cl)cc(S(N)(=O)=O)cc1S(N)(=O)=O | 1.1
8 | O=C(c1ccc(O)cc1)c1ccc(C(=O)c2ccc(O)cc2)cc1 | 1.25
9 | Cc1cc(NC(=O)c2ccccc2)c(Cl)cc1N | -1.55
10 | O=c1[nH]cc(I)cc1I | -0.05
11 | Cc1cccc2c1c1ccc3c(c1n2C)C(=O)C=CC3=O | -0.6
12 | COc1ccccc1NC(=O)Oc1cccc(OC(=O)c2ccccc2)c1 | 0.35
13 | COc1c(NC(C)=O)c2ccccc2c2ccccc12 | -0.2
14 | O=C(COc1ccc([N+](=O)[O-])cc1Cl)N1CCOCC1 | 1.85
15 | C#CC(c1ccccc1)(c1ccccc1)n1ccnc1 | 0.35
16 | c1ccc(-c2nn(-c3ccccc3)[n+](-c3ccccc3)n2)cc1 | -0.1
17 | Nc1ccc(C(=O)Nc2cccc(N)c2)cc1 | -1.35
18 | COc1cc(Cl)c(CC(=O)c2c[nH]c3ccccc23)cc1OC | 1.05
19 | Cc1ccn2c(C(C)O)nnc2c1 (stereo unspecified) | 0.05
20 | Clc1ccc(-c2nc(-c3cc4cc(Cl)ccc4o3)cs2)cc1 | 1.1
21 | Nc1ncn([C@@H]2O[C@H](CO)[C@@H](O)[C@H]2O)c(=O)n1 | 0.75
22 | COc1cccc(NC(=S)Nc2ccc(O)cc2)c1 | -0.55
23 | CCCCC[C@H](O)/C=C/[C@@H]1[C@@H](C/C=C\CCCC(=O)O)[C@@H](O)C[C@H]1O | -0.2
24 | O=C1CCC(c2ccccc2)(c2ccccc2)CC1 | 0.25
25 | O=c1cc(N=Nc2ccc(Cl)cc2)[nH]c(=O)[nH]1 | -0.5

Row | SMILES | T3 sensor activation Q score
26 | CC1=NN(c2ccccc2)C(=O)C1N=Nc1ccc(S(N)(=O)=O)cc1 (stereo unspecified) | 0.65
27 | CC1CC(C)(C)C2=NCCN21 (stereo unspecified) | 1.1
28 | CCC(C)NC(=O)CC(C)C (stereo unspecified) | 0.25
29 | O=[N+]([O-])c1c(N2CCN(CCO)CC2)nc2ccccn12 | 0.5
30 | c1ccc(-n2ncc3cccnc32)cc1 | -0.05
31 | Nc1ccc(C(=O)Nc2ccc(Nc3ccncc3)cc2)cc1 | 0.85
32 | O=C(O)CCC(=O)c1ccc2ccc3cccc4ccc1c2c34 | 1.75
33 | O=C1C(=Nc2cccc(Cl)c2)CC(c2ccc(Cl)cc2)N1c1cccc(Cl)c1 (stereo unspecified) | -1.1
34 | Cc1ccc(C(=O)Nc2ccc(CN3CCN(C)CC3)c(C(F)(F)F)c2)cc1C#Cc1cnc2cccnn12 | 1.9
35 | Cc1ccnc(NC(c2ccccc2)c2ccc3cccnc3c2O)c1 (stereo unspecified) | -0.55
36 | CCCN(CCC)CC(=O)N1CC(=O)Nc2ccccc21 | 0.55
37 | O=c1[nH]c(=S)c2ncn(-c3ccccc3)c2[nH]1 | 0.35
38 | COc1ccc(-c2cc3ccccc3[nH]2)cc1 | 0.7
39 | C[C@@H]1O[C@@H](Oc2c(-c3cc(O)c(O)c(O)c3)oc3cc(O)cc(O)c3c2=O)[C@H](O)[C@H](O)[C@H]1O | 0.05
40 | Nc1ccnn1-c1ccccc1 | -0.55
41 | c1ccc2[nH]c(-c3ccncc3)nc2c1 | 0.2
42 | Cc1cc(C)n(C(N)=NC(=O)c2ccc([N+](=O)[O-])cc2)n1 | 1.35
43 | O=c1ccc(Cl)n[nH]1 | 1.35
44 | O=C(Nc1cccnc1)c1cccc([N+](=O)[O-])c1 | 1.55
45 | O=C(O)/C=C\C(=O)Nc1ccc(-c2ccccc2)cc1 | 0.45
46 | N#CCc1cnc2ccccc2n1 | -1.1
47 | O=C(c1ccc(Cl)nc1)c1cccs1 | 0.3
48 | S=c1nc[nH]c2c1ncn2C1CCCC1 | 0.3
49 | Cc1ccc([N+](=O)[O-])cc1NC(=O)Nc1ccc(S(N)(=O)=O)cc1 | 0.8
50 | Cc1ccc(-c2nc(-c3nccc4ccccc34)oc2-c2ccccc2)cc1 | 1.05

Fetched one by one from the list above, 7 records:
Row | SMILES | T3 sensor activation Q score
40 | Nc1ccnn1-c1ccccc1 | -0.55
23 | CCCCC[C@H](O)/C=C/[C@@H]1[C@@H](C/C=C\CCCC(=O)O)[C@@H](O)C[C@H]1O | -0.2
39 | C[C@@H]1O[C@@H](Oc2c(-c3cc(O)c(O)c(O)c3)oc3cc(O)cc(O)c3c2=O)[C@H](O)[C@H](O)[C@H]1O | 0.05
9 | Cc1cc(NC(=O)c2ccccc2)c(Cl)cc1N | -1.55
5 | CCN(CC)CCN1C(=O)c2cccc3cc(N)cc(c23)C1=O | 0.95
38 | COc1ccc(-c2cc3ccccc3[nH]2)cc1 | 0.7
21 | Nc1ncn([C@@H]2O[C@H](CO)[C@@H](O)[C@H]2O)c(=O)n1 | 0.75

Additional structures:

Row | SMILES | T3 sensor activation Q score
51 | COc1cc2nccc(Oc3ccc(NC(=O)C4(C(=O)Nc5ccc(F)cc5)CC4)cc3)c2cc1OC | 0.1
52 | COc1cc2c(c(OC)c1O)C(=O)CO2 | 1.55
53 | COc1cccc(OCC(O)CN2CCN(c3ccccc3)CC2)c1 (stereo unspecified) | -0.05
54 | Cc1ccc(C#CC(C)(O)C(C)(C)C)cn1 (stereo unspecified) | 0.75
55 | O=C(Nc1nc2ccccc2s1)Nc1ccc([N+](=O)[O-])cc1Cl | -0.2
56 | CCOC(=O)Cc1cc(=O)[nH]n(-c2ccccc2)c1=O | 0.35
57 | OCC(O)C1OCOC(C(O)CO)C1O (stereo unspecified) | -1
58 | CO[C@@]12[C@H](COC(N)=O)C3=C(C(=O)C(C)=C(N)C3=O)N1C[C@@H]1N[C@@H]12 | 0.575 ± 0.32
59 | COc1ccc(C2OC3=C(Nc4cc(C)c(C)cc4N3)C2=O)cc1 (stereo unspecified) | 1
60 | N#C/C(=C\c1ccc[nH]1)C(=O)c1ccccc1 | -0.55
61 | Oc1ccccc1-n1c(-c2ccccc2)ccc1-c1ccccc1 | 0.5
62 | C=CCOc1ccnc(-c2ccccc2)n1 | 1.65
63 | c1ccc(-c2nnc(-c3ccccn3)s2)nc1 | 0.75
64 | COc1ccc2nc3cc(Cl)ccc3c(C#N)c2c1 | 0.5
65 | Nc1n[nH]c(-c2ccccc2)n1 | 0.5
66 | Clc1nc(Oc2ccccc2)nc(-c2cn(-c3ccccc3)c3ccccc23)n1 | 1.1
67 | Cc1ccc(N=Nc2c(O)ccc3n[nH]nc23)cc1 | -1.6
68 | ONC(=NCc1ccccc1)c1ccccc1 | 0.2
69 | COc1ccc(CN2CCOC2=O)cc1OC | -0.55
70 | Cc1ccc(C(C)C)cc1NC(=O)Nc1ccc([N+](=O)[O-])cc1 | -1.1
71 | Cc1cc(=O)oc2cc(OS(C)(=O)=O)ccc12 | 1.35
72 | CC1CC(O)C2C3(C)CCCC2(COC3=O)C12CCC1(CCOC1=O)O2 (stereo unspecified) | 1.25
73 | CC(=O)OCc1cc(-c2nc3ccccc3[nH]c2=O)nn1-c1ccc(Cl)cc1 | 0.6
74 | C(=C\c1ccccn1)/c1ccccn1 | 0.65
75 | N#CC1C=Cc2c(ccc3ccccc23)N1C(=O)c1ccccc1 (stereo unspecified) | 2.65

Row | SMILES | T3 sensor activation Q score
76 | c1ccc(-c2ccc(-c3nccc4ccccc34)[nH]2)cc1 | 0
77 | Clc1ccc(-c2c(C3=NCCCN3)nnn2-c2ccc(Cl)cc2)cc1 | 0.3
78 | Nc1nc(N)c2cc(Sc3ccc4ccccc4c3)ccc2n1 | 1.15
79 | CCOC(=O)c1c(NC(=S)NC)sc2c1CCCC2 | 0.85
80 | O=c1oc(-c2ccccc2)c(-c2ccccc2)c2ccccc12 | 0.8
81 | c1ccc(-c2ccc3c(c2)NCCN3)cc1 | -1.45
82 | O=C(NC1CCCCC1)c1cc2ccccc2cc1O | -0.1
83 | O=C(Oc1ccccc1)c1cccc2cccc(C(=O)Oc3ccccc3)c12 | 1.1
84 | CSc1cccc(NC(=O)Nc2nc3c(C)cccc3s2)c1 | -1
85 | COC1=C[C@@H](C)[C@@H]2C[C@H]3OC(O)C[C@H]4C(C)=C(OC)C(=O)[C@H]([C@@]2(C)C1=O)[C@@]34C (stereo partly specified) | 0.4
86 | CCc1noc2cc(-c3ccccc3)n(C)c(=O)c12 | 0.35
87 | CCN(CC)CCN1c2ccccc2Sc2ccc3ccccc3c21 | -1.05
88 | Cc1cccc(N2CCN(CC(O)COc3ccc(Cl)cc3)CC2)c1 (stereo unspecified) | 0
89 | c1ccc(-c2nnc3nc(N4CCCCC4)nc(N4CCCCC4)n23)cc1 | 1.3
90 | O=C(Nc1cccc(-c2nc3ccccc3[nH]2)c1)c1ccc(C(=O)Nc2cccc(-c3nc4ccccc4[nH]3)c2)cc1 | 0.65
91 | CCOC(=O)Cc1cc(=O)c2cc(C)ccc2[nH]1 | 0.7
92 | O=C1C=CC(=O)N1c1ccc(I)cc1Cl | 0.15
93 | Cc1cccc(C(O)C(O)c2cccc(C)n2)n1 (stereo unspecified) | 0.15
94 | CC(=NO)C1CC(CC(=O)O)C1(C)C (stereo unspecified) | -0.55
95 | Nc1nc(N)c(C=Nc2ccc(Br)cc2)c(Nc2ccc(Br)cc2)n1 | 0.25
96 | O=C(/C=C/c1ccc(Cl)s1)c1ccc(Cl)s1 | 1.1
97 | COC(=O)C1(F)C(=O)NC(=O)NC1OC (stereo unspecified) | 0.6
98 | Cc1ccc(N=Nc2c(N)nn(-c3ccccc3)c2N)cc1 | 1.05
99 | CCCNC(=O)c1ccccc1C(=O)NC1(C(=O)NCCC)CCCC1 | -0.35
100 | NC1=NC(c2ccccc2)N=C(Nc2ccccc2)N1 (stereo unspecified) | 1.2

Row | SMILES | T3 sensor activation Q score
101 | Nc1nc(N)c(N=Nc2ccc(C(=O)O)cc2)c(N)n1 | 0.55
102 | COc1cc([C@@H]2c3cc4c(cc3[C@@H](O[C@@H]3O[C@@H]5CO[C@@H](C)O[C@H]5[C@H](O)[C@H]3O)[C@H]3COC(=O)[C@H]23)OCO4)cc(OC)c1O | 0.2
103 | CCOc1ccc(S(=O)(=O)c2ccc(C)cc2)c2c1no[n+]2[O-] | -0.75
104 | c1ccc2c(c1)cnc1ccccc12 | 1.05
105 | CC[C@@]1(O)C(=O)OCc2c1cc1n(c2=O)Cc2cc3c(N)cccc3nc2-1 | -1.05
106 | O=c1nc(Nc2cccc(Cl)c2)oc2cc(Cl)oc(=O)c12 | -0.4
107 | O=C(O)c1ccccc1-c1ccccc1C(=O)Nc1ccc2oc(=O)c3ccccc3c2c1 | -0.25
108 | CC1CN(CCN2CC(C)N(C=O)CC2C)C(C)CN1C=O (stereo unspecified) | 1.3
109 | CN(C)c1nc(N(C)C)nc(N(C)C)n1 | 0.5
110 | COC(=O)C1(C(=O)OC)C2C(=O)C3C(C21)C3(C(=O)OC(C)(C)C)C(=O)OC(C)(C)C (stereo unspecified) | 0.65
111 | S=c1[nH]c2ccccc2n2cccc12 | 0.6
112 | CCOC(=O)Cn1nc2oc(=O)c(CCN3CCN(c4ccccc4OC)CC3)c(C)c2c1C | -0.6
113 | NS(=O)(=O)c1ccc(Nc2ccccc2)c([N+](=O)[O-])c1 | 0.85
114 | NC(=O)C1=C(N)c2ccccc2C1c1ccccc1 (stereo unspecified) | 1.15
115 | Nc1nc(SCc2ccccn2)c2ncn(C3OC(CO)C(O)C3O)c2n1 (stereo unspecified) | -1.8
116 | NNC(=O)CNC(=O)Nc1n[nH]c(=S)s1 | 0.3
117 | Nc1nc(=S)c2[nH]cnc2[nH]1 | -0.65
118 | O=C(Nc1ccc(C2=NCCN2)cc1)c1ccc(C(=O)Nc2ccc(C3=NCCN3)cc2)c(Cl)c1 | -1.25
119 | CCCCOC(=O)c1cccnc1 | 1.05
120 | O=C1CSC(=S)N1/N=C/c1c[nH]c2ccc(Br)cc12 | 0.25
121 | CCCCCOc1ccc(N2C(=O)C(C)CNC2=S)cc1 (stereo unspecified) | 1.1
